Measurements as given in US7901906B2, “Targeting of MKRN1 for identifying cancer treatment agents” (University of Central Florida Research Foundation, Inc., priority 2006, dated 2011).
For at least one compound, name, drawing or mass did not settle the structure.

Legend:
Format in all cases: cell-based, human
[1] = tested on: TRF1; test: TRF1 expression levels by immunoblotting in H1299 cells transfected with Flag-TRF1; conditions: H1299 transfected with Flag-TRF1, 0.1 μM GA
[2] = tested on: hTERT; test: hTERT protein levels by immunoblotting in H1299 cells
Description: FIG. 1. hTERT is sensitive to the Hsp90 antagonist geldanamycin. (A) Down-regulation of ectopically expressed hTERT by GA. H1299 cells transfected with Flag-hTERT or Flag-TRF1 were treated with 0.1 μM GA for the indicated times. Lysates were resolved on 8% SDS-PAGE and analyzed by immunoblotting using an anti-Flag antibody probe. Cells were pretreated with 10 μM MG132 or E-64 for 2 hours, either alone or before treatment with GA. (B) Concentration dependence of GA on hTERT. H1299 cells transfected with Flag-hTERT or hTERT-HA were treated for 2 hours with the GA concentration indicated. The hTERT polypeptides were visualized with anti-Flag or anti-HA antibodies as marked by each blot. (C) Down-regulation of endogenous hTERT by GA. H1299 cells were treated with 0.1 μM GA for the indicated times, and cell lysates were analyzed by immunoprecipitation with anti-hTERT antibody followed by immunoblotting using same antibody probe. Cells were pretreated with 10 μM MG132 for 2 hours, either alone or before treatment with GA. Molecular weight markers are shown in kilodaltons. (D) H1299 cells were treated with 0.1 μM GA for the indicated times, and cell lysates were analyzed for telomerase activity by the TRAP assay. The lane labeled LB corresponds to the negative control (lysis buffer only). ITAS represents the internal telomerase assay standard. (E) Saos-2 cells transfected with Flag-hTERT or hTERT-HA or empty vector were untreated or treated with 0.1 μM GA for 16 hours, and cell lysates were analyzed for telomerase activity using the TRAP assay.
FIG. 2. hTERT is ubiquitinated prior to proteasome-mediated degradation. (A) H1299 cells were co-transfected with Flag-hTERT and HA-ubiquitin. Cells were either untreated or treated for 2 hours with 10 μg/ml ALLnN or 0.1 μM GA, or a combination of the two as specified above each lane. Immunoprecipitation was performed with anti-Flag antibody before probing with anti-hTERT or anti-HA antibodies as indicated besides each blot. Molecular weight markers are shown in kilodaltons. (B) H1299 cells co-transfected with Flag-hTERT and HA-ubiquitin were treated for 1 hour with the GA concentration indicated in the presence of 10 μM MG132. Immunoprecipitation was performed with anti-Flag antibody followed by immunoblotting using an anti-HA antibody probe. (C) H1299 cells co-transfected with Flag-hTERT and HA-ubiquitin were either untreated or treated for 2 hours with 10 μg/ml ALLnN as specified above each lane. Proteins were immunoprecipated with anti-Flag antibody followed by immunoblotting using an anti-HA antibody probe. […]

[3] = tested on: telomerase; test: Telomerase activity by TRAP assay in Saos-2 cells transfected with hTERT; conditions: Saos-2 transfected with Flag-hTERT or hTERT-HA, 0.1 μM GA, 16 hours
[4] = tested on: hTERT; test: Ubiquitination of hTERT in H1299 cells (immunoprecipitation, anti-HA immunoblot)
Description: FIG. 2. hTERT is ubiquitinated prior to proteasome-mediated degradation. (A) H1299 cells were co-transfected with Flag-hTERT and HA-ubiquitin. Cells were either untreated or treated for 2 hours with 10 μg/ml ALLnN or 0.1 μM GA, or a combination of the two as specified above each lane. Immunoprecipitation was performed with anti-Flag antibody before probing with anti-hTERT or anti-HA antibodies as indicated besides each blot. Molecular weight markers are shown in kilodaltons. (B) H1299 cells co-transfected with Flag-hTERT and HA-ubiquitin were treated for 1 hour with the GA concentration indicated in the presence of 10 μM MG132. […]
FIG. 4. […] Samples were resolved by 6% SDS-PAGE and analyzed by immunoblotting with an anti-HA antibody probe. […] Anti-Flag immunoprecipitates and cell lysates were analyzed by immunoblotting with anti-HA antibody and anti-V5 antibody probes, respectively. […] Anti-Flag immunoprecipitates and cell lysates were analyzed by immunoblotting with anti-HA antibody and anti-V5 antibody probes, respectively.
H1299 cells were transiently transfected with the expression vectors indicated in the figure legends using TransFast transfection reagent (Promega, Madison, Wis.) according to the manufacturer's instructions. […] When ubiquitin conjugates of hTERT were detected, immunoprecipitation was performed with lysis buffer containing 0.1% SDS to dissociate its interacting proteins. […]

[5] = tested on: telomerase; test: Telomerase activity by TRAP assay in H1299 cells; conditions: H1299, 0.1 μM GA, indicated times

## COC1=C2C[C@@H](C)C[C@H](OC)[C@H](O)[C@@H](C)/C=C(\C)[C@H](OC(N)=O)[C@@H](OC)/C=C\C=C(/C)C(=O)NC(=CC1=O)C2=O [GA, geldanamycin]
[1]
  TRF1 expression levels: not affected
[2]; H1299, 0.1 μM GA, anti-hTERT antibody
  endogenous hTERT levels: significantly decreased
[2]; H1299 co-transfected with Flag-hTERT and HA-ubiquitin, 2 hours, single agent (0.1 μM GA or 10 μg/ml ALLnN)
  hTERT levels: decreased hTERT levels
[2]; H1299 transfected with Flag-hTERT or hTERT-HA, 2 hours
  level of hTERT expression versus concentration: decreased the level of hTERT expression in a dose-dependent manner
[2]; H1299 transfected with Flag-hTERT, 0.1 μM GA, indicated times
  hTERT protein level over time: down-regulated in a time-dependent manner
[3]
  telomerase activity: reduced telomerase activity to near basal levels
[4]; H1299, 0.1 μM GA with 10 μg/ml ALLnN versus ALLnN alone, 2 hours
  ubiquitination of hTERT in presence of ALLnN: substantially enhanced
[4]; H1299, GA 1 hour at indicated concentrations, 10 μM MG132
  ubiquitination of hTERT in presence of MG132: enhanced GA-induced ubiquitination in a dose-dependent manner
[5]
  telomerase activity: reduced telomerase activity in a time-dependent manner
